In PubChem BioAssay AID1117319 (Southern Research Institute, 2015):
About 1,500 (0.58%) of roughly 260,000 compounds were called active. The inconclusive results got no clear call from the source; some entries with a clear call stand among them for comparison.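 How the source made its calls: active means inhibition above a set limit at one or more doses, reproduced on every date tested; inconclusive means results disagree between test dates, or hit never tested in dose response; inactive means the rest.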

Amino acid sequences for entries named in this document (tags omitted). A change or cut given only in a name is not applied to a line headed by its entry.
UniProt P69720: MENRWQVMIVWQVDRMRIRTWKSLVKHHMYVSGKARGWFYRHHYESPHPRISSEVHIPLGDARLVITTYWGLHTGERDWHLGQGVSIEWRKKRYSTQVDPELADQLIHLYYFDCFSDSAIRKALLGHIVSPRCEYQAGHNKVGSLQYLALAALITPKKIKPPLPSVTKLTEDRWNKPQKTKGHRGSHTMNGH
UniProt P69721: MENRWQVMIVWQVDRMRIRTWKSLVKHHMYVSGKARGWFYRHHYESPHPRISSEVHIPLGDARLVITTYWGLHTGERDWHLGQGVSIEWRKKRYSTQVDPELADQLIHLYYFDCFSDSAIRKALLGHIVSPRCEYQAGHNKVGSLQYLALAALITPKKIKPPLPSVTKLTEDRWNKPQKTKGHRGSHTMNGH
UniProt P69722: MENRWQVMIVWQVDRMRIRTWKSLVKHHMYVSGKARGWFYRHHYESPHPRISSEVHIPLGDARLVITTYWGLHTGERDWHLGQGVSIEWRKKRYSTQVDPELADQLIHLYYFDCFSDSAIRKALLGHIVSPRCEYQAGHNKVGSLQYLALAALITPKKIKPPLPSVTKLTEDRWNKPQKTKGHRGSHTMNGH
UniProt P69723: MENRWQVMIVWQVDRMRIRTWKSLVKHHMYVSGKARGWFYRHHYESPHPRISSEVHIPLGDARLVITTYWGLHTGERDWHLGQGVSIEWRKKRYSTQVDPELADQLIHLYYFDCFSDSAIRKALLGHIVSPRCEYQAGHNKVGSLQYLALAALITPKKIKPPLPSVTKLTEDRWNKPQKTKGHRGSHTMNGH
UniProt Q9HC16: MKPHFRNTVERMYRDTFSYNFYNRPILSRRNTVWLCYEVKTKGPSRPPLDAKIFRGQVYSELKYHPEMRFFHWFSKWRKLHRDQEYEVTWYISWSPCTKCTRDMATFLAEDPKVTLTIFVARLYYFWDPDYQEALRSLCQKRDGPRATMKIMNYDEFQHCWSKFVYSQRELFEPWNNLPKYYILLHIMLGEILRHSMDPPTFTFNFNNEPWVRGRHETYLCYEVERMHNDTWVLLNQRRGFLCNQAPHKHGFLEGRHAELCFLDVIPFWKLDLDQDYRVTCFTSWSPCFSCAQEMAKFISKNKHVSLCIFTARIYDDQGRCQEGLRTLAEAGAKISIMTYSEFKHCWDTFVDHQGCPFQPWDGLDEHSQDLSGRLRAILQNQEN

Biological target: Virion infectivity factor (Human immunodeficiency virus type 1 group M subtype B (isolate BH10)) + Virion infectivity factor (Human immunodeficiency virus type 1 group M subtype B (isolate BRU/LAI)) + Virion infectivity factor (Human immunodeficiency virus type 1 group M subtype B (isolate PCV12)) + Virion infectivity factor (Human immunodeficiency virus type 1 group M subtype B (isolate HXB2)) + DNA dC->dU-editing enzyme APOBEC-3G (Homo sapiens) (UniProt P69720+P69721+P69722+P69723+Q9HC16)
Test: inhibitors of Vif binding to APOBEC3G peptide, primary screen, biochemical, TR-FRET, GST-Vif 1-94, biotin-A3G peptide, dose response retest (AID 1117319);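 further: Vif residues 1-94 fused to GST binding biotinylated APOBEC3G peptide 110-148; 0% = full assay without inhibitor and 100% = GST in place of GST-Vif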
Conditions: hits give high values

| Structure (SMILES) | inhibition |
| --- | --- |
| Cc1oc2ccc(OCc3ccc(F)cc3)cc2c1C(=O)O | inconclusive: 59.8% |
| CC(=O)OCCc1c(C)nc2nc[nH]n2c1=O | inconclusive: 40.4% |
| CCC(C)(C)n1nnnc1C(c1cc2cc(C)cc(C)c2[nH]c1=O)N1CCCC1 (stereo not given) | inconclusive: 33% |
| O=C(CN(C(=O)CNS(=O)(=O)c1ccc(F)cc1)C1CCCC1)NCc1ccco1 | inactive: -8.82% |
| OCC[C@H]1C[C@H](O)[C@@H](O)[C@@]2(CCCCO2)O1 | inconclusive: 38.8% |
| COc1ccc(OC)c(NC(=O)C2CCC(CNc3c(N4CCOCC4)c(=O)c3=O)CC2)c1 (stereo not given) | inconclusive: 42.4% |
| COc1ccc(/C=C/C(=O)c2cc(Br)ccc(=O)c2O)cc1 | inconclusive: 52.9% |
| CCc1nc(CN2CCN(Cc3ccc(F)c(F)c3)C(CCO)C2)c(C)[nH]1 (stereo not given) | inconclusive: 53.4% |
| CC(C)NC(=O)c1ccc2c(=O)n(Cc3ccco3)c(=S)[nH]c2c1 | inconclusive: 54.9% |
| Cc1cc(C)c(S(=O)(=O)NC2CC(C)(C)NC(C)(C)C2)cc1C | inconclusive: 57.9% |
| C/C(CC(=O)NC1C2CC3CC(C2)CC1C3)=N\NC(=O)Cc1cccs1 (stereo not given) | inconclusive: 42.6% |
| CCN(CC)C(=O)COc1ccc(C=O)cc1OC | inconclusive: 47% |
| O=C(CSC1=Nc2ccccc2C2=NC(c3ccccc3)C(=O)N12)NCC1CCCO1 (stereo not given) | inconclusive: 62.1% |
| COc1cc(CN2CCCC(C(=O)c3ccccc3SC)C2)cc(OC)c1 (stereo not given) | inconclusive: 58.2% |
| N#CC1=C(N)SC(N)=C(C#N)C1c1ccoc1 | inconclusive: 58.5% |
| CCOC(=O)c1cn(CC)c2cc(Cl)c([N+](=O)[O-])cc2c1=O | inconclusive: 58% |
| COc1cc(OC)cc(C(=O)Nc2ccc(-c3nc4ccccc4o3)cc2)c1 | inconclusive: 8.99% |
| O=C(/C=C/c1c(Cl)nc2ccccn12)N1CCCCC1 | inconclusive: 39% |
| Cc1ccc(NC(=O)C2CC(=O)NC(N3CCCCC3)=N2)cc1Cl (stereo not given) | inconclusive: 35.6% |
| Cc1ccc(-c2csc(-c3cc(C)on3)n2)cc1 | inconclusive: 33.9% |
| CS(=O)(=O)Nc1ccc(Br)cc1C(=O)c1ccccc1 | inconclusive: 51.1% |
| CN1CCN(CCCNC(=O)c2ccc(CSCc3cccc(Cl)c3)o2)CC1 | inconclusive: 36.1% |
| CN1CCN(C2=Nc3cc(Cl)ccc3Nc3ccccc32)CC1 | inconclusive: 34.3% |

| Structure (SMILES) | inhibition |
| --- | --- |
| Cc1c(NC(=O)COC(=O)c2ccc(S(=O)(=O)N3CCOCC3)cc2)c(=O)n(-c2ccccc2)n1C | inconclusive: 39.3% |
| Cn1c(N)c(C(=O)COC(=O)c2cc(-c3ccco3)nc3ccccc23)c(=O)n(Cc2ccccc2)c1=O | inconclusive: 59.6% |
| Cc1ccccc1NC(=O)CN1C(=O)S/C(=C\c2cccn2-c2cccc(C(=O)O)c2)C1=O | inactive: 31.2% |
| O=C(O)COc1ccc(Cl)cc1CO | inconclusive: 34.9% |
| Cc1cccc(N2CCN(C(=O)c3cc4n(n3)C(C(F)(F)F)CC(c3ccco3)N4)CC2)c1C (stereo not given) | inconclusive: 47.5% |
| O=C(CCCN1C(=O)c2ccccc2C1=O)N1CCC(c2ccccc2)C1 (stereo not given) | inconclusive: 38.5% |
| O=C(N/N=C/c1ccccc1Cl)c1nc2ccc([N+](=O)[O-])cc2c(=O)[nH]1 | inconclusive: 59.7% |
| Cc1nc2c(o1)CCc1ccccc1C2N1CCN(C)CC1 (stereo not given) | inconclusive: 39.5% |
| C=CCN1C(=O)S/C(=C\c2ccc(N3CCOCC3)cc2C)C1=O | inactive: -1.96% |
| CCCCC(=O)NC(c1ccco1)c1c(O)ccc2ccccc12 (stereo not given) | inconclusive: 36.4% |
| CC(C)(C)OC(=O)N1CCC(C(=O)N2CCC[C@H]2C(=O)O)CC1 | inconclusive: 32.1% |
| CCn1c(CSc2nnc3ccccn23)nc2cc(C(=O)O)ccc21 | inconclusive: 34.7% |
| O=C(COC(=O)c1cc(=O)[nH]c2ccccc12)Nc1nccs1 | inactive: 0.86% |
| O=C(NCc1cccnc1)Nc1ccc(F)cc1F | inconclusive: 49.3% |
| Cc1ccc(S(=O)(=O)c2c(C)nn(C(C)(C)C)c2OC(=O)CC(C)C)cc1 | inactive: -0.23% |
| Cc1ccc(/C=C/C(=O)Nc2cccnc2)o1 | inconclusive: 41.5% |
| COc1ccc(N2CCN(C(=O)COc3ccc(S(=O)(=O)N4CCOCC4)cc3C)CC2)cc1 | inconclusive: 45.8% |
| N=C1C(c2nc3ccccc3c(=O)[nH]2)=C(O)CN1CCc1ccccc1 | inconclusive: 35.6% |
| CC(=O)c1cccc(OCc2cc(C(=O)N(C)Cc3nccs3)no2)c1 | inactive: -3% |
| COC(=O)c1c(NC(=O)Cc2cccs2)sc2c1CCCC2 | inactive: 29.5% |
| COc1ccc(NC(=O)CN(C)S(=O)(=O)c2ccc(C)cc2)c([N+](=O)[O-])c1 | inconclusive: 51.3% |
| O=C(NCc1cccnc1)C1CC(=O)N(c2ccc(Cl)cc2)C1 (stereo not given) | inconclusive: 61.4% |
| O=c1c2c(-c3ccccc3)csc2ncn1/N=C/c1c2ccccc2cc2ccccc12 | inconclusive: 38.2% |

| Structure (SMILES) | inhibition |
| --- | --- |
| O=C(NCCc1ccccc1)c1ccc2nccnc2c1 | inactive: 28.7% |
| COc1cc(C#N)ccc1OCC(=O)NCc1cccs1 | inconclusive: 38.3% |
| COc1cc(/C=C2\SC(=O)N(CCNC(=O)c3c(C)noc3C)C2=O)cc(OC)c1OC | inactive: -5.96% |
| CCOCc1nnc(NC(C)=O)s1 | inconclusive: 33.4% |
| Cc1cc([N+](=O)[O-])nn1CC(=O)N1CCc2ccccc2C1 | inactive: -2.29% |
| CCC(C)(C)n1nnnc1C(c1ccc2ncccc2c1)N1CCCCCC1 (stereo not given) | inactive: 2.63% |
| COc1ccc(Cl)cc1NC(=O)C1CCN(S(C)(=O)=O)CC1 | inconclusive: 35.9% |
| O=C(Nc1nc(-c2cccs2)c(-c2ccccc2)s1)c1ccco1 | inactive: 2.82% |
| CC/C(=N\NC(=O)CSc1ncccn1)c1ccc2c(c1)OCCO2 | inactive: 4.58% |
| Cc1cc(N/N=C/c2ccc(O)cc2)nc(NS(=O)(=O)c2ccccc2)n1 | inconclusive: 48.4% |
| Cc1ccnc2nc(C(=O)Nc3ccc4c(c3)OCO4)nn12 | inconclusive: 53.4% |
| O=C(N/N=C/c1ccc(O)c(O)c1)c1ccc(CSc2cccc3cccnc23)cc1 | inconclusive: 51.2% |
| O=C(N/N=C/c1ccco1)c1csc2c1CCCC2 | inconclusive: 33.3% |
| Cc1c(Cl)cccc1NC(=S)NC1CCN(C(C)C)CC1 | inconclusive: 61.4% |
| Cc1cc2n(n1)C(c1ccccc1)CC(c1ccc(Br)cc1)=N2 (stereo not given) | inconclusive: 48.7% |
| O=C(O/N=C1\CCS(=O)(=O)c2sccc21)C1CC1 | inactive: -8.69% |
| CCc1cccc(C)c1NC(=O)Nc1c(Br)cnn1C | inactive: -8.57% |
| COc1ccc(OC)c(NC(=O)CCN2CCN(c3ccccc3F)CC2)c1 | inactive: 25.7% |
| O=C(COc1ccc(Cl)cc1)NN=C1CCCCCCC1 | inconclusive: 50.8% |
| CCCC1OC2CC3C4CCC5=CC(=O)C=CC5(C)C4C(O)CC3(C)C2(C(=O)O)O1 (stereo not given) | inconclusive: 44.9% |
| COc1ccc(C)cc1NC(=O)CNC(=O)Cn1ccc2ccccc2c1=O | inconclusive: 34.6% |
| O=[N+]([O-])c1ccc2c(c1N1CCCCC1)=NC1(CCCCC1)[N+]=2[O-] | inconclusive: 43.4% |
| COCCCNC(=O)C1CCN(c2ccc(N3CCOCC3)nn2)CC1 | inconclusive: 64.1% |

| Structure (SMILES) | inhibition |
| --- | --- |
| CCC(C)C(NC(=O)C1CCC(C)CC1)C(=O)NC(CCSC)C(=O)OC (stereo not given) | inconclusive: 34.6% |
| CC1(OC(=O)C2CCCC2)C(=O)C=C2C=C(c3ccsc3)N(c3ccccc3)C=C2C1=O (stereo not given) | inconclusive: 36.3% |
| COCCn1c(-c2ccco2)nc2nc3ccccc3nc21 | inconclusive: 54.3% |
| COC(=O)c1cc(OC)c(OC)cc1NC(=S)N1CCN(Cc2ccccc2)CC1 | inconclusive: 46.3% |
| COc1cc(NC(=O)C2CCCO2)c(C(=O)O)cc1OC (stereo not given) | inconclusive: 33.7% |
| Cn1cnnc1SCC(=O)Nc1sc2c(c1C(N)=O)CCC2 | inconclusive: 35.4% |
| O=C1CNC(=O)N1Cc1ccc(Br)cc1 | inconclusive: 21.9% |
| COC(=O)C(CCSC)NC(=O)Cn1ncc2c(=O)oc3ccc(C)cc3c21 (stereo not given) | inconclusive: 26.5% |
| CC(=O)c1ccc(NC(=O)COC(=O)CCN2C(=O)c3cccc([N+](=O)[O-])c3C2=O)cc1 | inconclusive: 43.6% |
| COCCNC(=O)C(c1ccc(C)cc1)N(C(=O)CCC(=O)Nc1ccccn1)C1CCCCC1 (stereo not given) | inconclusive: 62.9% |
| Cc1ccc([N+](=O)[O-])cc1NC(=O)Cc1cccs1 | inconclusive: 38.2% |
| COc1ccc(NS(=O)(=O)Cc2ccccc2)cc1OC | inconclusive: 35% |
| O=C(CCn1cccc1)NCc1ccc(Cl)cc1 | inconclusive: 31.2% |
| Cc1ccc(-n2nc(C)c(C(=O)Nc3cccc(C(=O)NC4CC4)c3)n2)c(C)c1 | inconclusive: 39.6% |
| c1cnc2c(c1)ccc1cccnc12 | inconclusive: 34.9% |
| O=C(Nc1ccc(F)cc1F)NC1CCN(Cc2c(F)cccc2Cl)CC1 | inconclusive: 56.9% |
| Cc1noc(NS(=O)(=O)c2ccc(NC(=O)Nc3ccc(Cl)c(Cl)c3)cc2)c1C | inconclusive: 35% |
| O=C(Nc1ccc(CN2CCCCC2)cc1)c1cccc(F)c1 | inactive: -2.63% |
| Cc1ccc2[nH]c(=O)c(COC(=O)C3CCCO3)cc2c1 (stereo not given) | inconclusive: 34.5% |
| Oc1c(/C=N/Nc2cccc3cccnc23)ccc2ccccc12 | inconclusive: 43.5% |
| COc1ccc(C2CC(c3cccc(C)c3)n3ncnc3N2)cc1 (stereo not given) | inconclusive: 58.8% |

Individual results from the results shown:
Under inhibition, Cc1noc(NS(=O)(=O)c2ccc(NC(=O)Nc3ccc(Cl)c(Cl)c3)cc2)c1C shows inconclusive: 35%
Under inhibition, O=C(Nc1ccc(CN2CCCCC2)cc1)c1cccc(F)c1 shows inactive: -2.63%
Under inhibition, COc1ccc(C2CC(c3cccc(C)c3)n3ncnc3N2)cc1 (stereo not given) shows inconclusive: 58.8%
Under inhibition, CC(=O)c1ccc(NC(=O)COC(=O)CCN2C(=O)c3cccc([N+](=O)[O-])c3C2=O)cc1 shows inconclusive: 43.6%
Under inhibition, COc1ccc(NS(=O)(=O)Cc2ccccc2)cc1OC shows inconclusive: 35%
